The results in this text go back to PubChem BioAssay AID1487 (National Center for Advancing Translational Sciences (NCATS), 2009).

Structures are written as SMILES. This is one part of the list. Shown are side measurements of this screen, not its main read-out; they come without a call. Most of these compounds were active or inconclusive in the main read-out, so they are no random draw. Potencies come from curve fits of mixed quality, noted in brackets.

In general, AC50 refers to the concentration giving half of the maximal activity seen.

This experiment is described as follows: qHTS Assay for Modulators of Lamin A Splicing. As to conditions: HeLa LMNA splicing GFP/RFP minigene ratio, 48 h. In short, it runs like this:
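Read-out is the ratio of GFP to DsRed2 object intensity, acquired by 488 nm laser-scanning cytometry on HeLa lamin A-EGFP minigene reporter cells. Compound incubation 48 hrs at 37 °C in Opti-MEM with 2% FBS; DMSO 0.5% final.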
Background: Quantitative high-throughput screening tests each substance at several concentrations.

Setting [1] is: measured here: GFP splicing reporter channel.
Setting [2] is: measured here: RFP viability control channel.

With `CN1CCN(C(=S)c2ccc(-c3cccc(Cl)c3Cl)o2)CC1`, the concentration at half-maximal activity (AC50) is, setting by setting: under setting [1], 17.8 µM [rising, single point]; under setting [2], 35.5 µM [rising, single point].

Consider `COc1ccc(-c2cc(C(C)=O)c(C)n2CCC(=O)Nc2cc(Cl)ccc2C)cc1`, for which the AC50 under setting [2] was 35.5 µM [falling, partial curve, poor fit].

As for `Cc1ncoc1C(=O)N1CCCC(C(=O)c2cccc(C(F)(F)F)c2)C1` (centres undefined), the AC50 under setting [2] is 0.0708 µM [falling, full curve, poor fit].

With `CCOC(=O)C1CCN(S(=O)(=O)c2ccc3c(c2)N(C)C(=O)CC(=O)N3C)CC1`, under setting [1], the concentration at half-maximal activity (AC50) is 10 µM [rising, partial curve, poor fit].

As to `CCOc1ccccc1NC(=O)C1=C(C)NC(=S)NC1c1cccs1` (centres undefined), the half-maximal activity concentration (AC50) under setting [2] is 10 µM [rising, single point].

For the compound `O=C(COC(=O)c1cccc(Br)c1)NCCC1=CCCCC1`, the AC50 under setting [1] was 0.01 µM [falling, full curve, poor fit].

On to `Cc1cc(NC(=O)CSc2ccccn2)no1`, for which the AC50 under setting [1] is 1.12 µM [falling, partial curve, poor fit].

With `Cc1cc(=O)n(CC(=O)N2CCN(c3ccccc3F)CC2)c2c1c(C)nn2C`, the AC50 under setting [1] is 0.00891 µM [falling, full curve, poor fit].

For the compound `O=C(NNC1CC(=O)N(c2ccc(Cl)cc2)C1=O)c1ccco1` (centres undefined), the AC50 under setting [1] is 0.00316 µM [rising, full curve, poor fit] and the half-maximal activity concentration (AC50) under setting [2] is 0.112 µM [rising, full curve].

For `CCOC(=O)c1[nH]c(C)c(CCC(=O)Nc2cc(C)ccc2OC)c1C`, under setting [2], the concentration at half-maximal activity (AC50) was 35.5 µM [rising, single point].

Regarding `CCCc1ccc(-c2cc(C(=O)N/N=C/c3ccc([N+](=O)[O-])o3)c3ccccc3n2)cc1`, the AC50 reads like this: under setting [1], 35.5 µM [falling, single point]; under setting [2], 3.98 µM [falling, partial curve, poor fit].

`CS(=O)(=O)c1cnc2c(-c3ccsc3)cnn2c1N`: the AC50 under setting [1] was 25.1 µM [rising, single point].

For `COc1ccc(OC)c(/C=N/NC(=O)CC(=O)NCc2ccccc2)c1`, the AC50 is 31.6 µM [falling, partial curve, poor fit] under setting [1] and 35.5 µM [falling, single point] under setting [2].

On to `CCN(CC)C(=O)c1sc(NC(=O)c2c(OC)cccc2OC)c(C#N)c1C`, for which, under setting [1], the AC50 is 0.00891 µM [rising, full curve, poor fit].

On to `CCCSc1nc2ccsc2c(=O)n1CC`, for which the half-maximal activity concentration (AC50) under setting [1] was 3.16 µM [rising, partial curve, poor fit].

As to `CC(=O)Nc1nnc(CCS(=O)(=O)c2ccc(Cl)cc2)s1`, the concentration at half-maximal activity (AC50) under setting [1] was 10 µM [falling, partial curve].

For the compound `COc1ccc(Cn2ccn(Cc3cccc(OC)c3)c(=O)c2=O)cc1`, the concentration at half-maximal activity (AC50) under setting [2] was 17.8 µM [rising, single point].

`c1ccc(Nc2nn[nH]n2)cc1`: under setting [2], the AC50 was 0.0355 µM [rising, full curve, poor fit].

On to `COc1cc2ccccc2cc1C(=O)Nc1ccc(Cc2ccncc2)cc1`, for which the half-maximal activity concentration (AC50) under setting [2] was 4.47 µM [rising, full curve, poor fit].

`CCN1c2ccccc2-c2nc3ccccc3n2C1c1cccs1` (centres undefined): the concentration at half-maximal activity (AC50) under setting [2] was 11.2 µM [rising, single point].

On to `NC(=O)c1cc2cc(Cc3ccccc3Cl)ccc2oc1=O`, for which the AC50 under setting [2] was 0.02 µM [falling, full curve].

Regarding `CN(C)c1ccc(N2CN=C3SCC(=O)N3C2)cc1`, the AC50 was 12.6 µM [falling, single point] under setting [1] and 11.2 µM [falling, partial curve] under setting [2].

As for `COc1ccc(CN(C(=O)CSc2nnc(-c3ccc(OC)c(OC)c3)o2)c2ccc(F)cc2)cc1`, under setting [2], the half-maximal activity concentration (AC50) was 35.5 µM [rising, single point].

`COc1cc2nc(NC(=O)c3ccc(S(=O)(=O)N4CCOCC4)cc3)sc2cc1OC`: the AC50 under setting [1] is 0.562 µM [rising, full curve, poor fit].

Turning to `N[C@@H](CSCCCO)C(=O)O`, under setting [1], the concentration at half-maximal activity (AC50) was 0.0631 µM [falling, single point].

Turning to `N#Cc1ccc(/C=C/C(=O)c2ccccc2)cc1`, the half-maximal activity concentration (AC50) under setting [2] was 31.6 µM [falling, single point].

As to `CCOC(=O)c1cccc(NC(=O)CCn2c(-c3ccc(F)cc3)cc(C(=O)OCC)c2C)c1`, the AC50 is, setting by setting: under setting [1], 2.24 µM [falling, partial curve]; under setting [2], 7.08 µM [falling, partial curve, poor fit].

Regarding `COC(=O)c1ccccc1NC(=O)CN(CCc1ccccc1)S(C)(=O)=O`, the AC50 under setting [1] is 0.398 µM [rising, full curve, poor fit] and the AC50 under setting [2] is 4.47 µM [rising, full curve, poor fit].

With `COc1cccc(/C=N/NC(=O)Cn2nc(C)c([N+](=O)[O-])c2C)c1O`, under setting [2], the AC50 was 11.2 µM [rising, partial curve].

Regarding `COc1cc2c(cc1NC(=O)CSc1nc3ccccc3[nH]1)oc1ccccc12`, the AC50 under setting [1] was 15.8 µM [rising, single point] and the AC50 under setting [2] is 22.4 µM [rising, single point].

As for `Fc1cccc(COc2ccccc2CNc2ccccc2)c1`, the AC50 under setting [2] is 35.5 µM [rising, single point].

In the case of `CCCc1cc(N2CCCC(C(=O)Nc3ccc(OC)cc3OC)C2)n2ncnc2n1` (centres undefined), the concentration at half-maximal activity (AC50) under setting [2] is 35.5 µM [rising, single point].

As to `O=c1c(-c2ccc(O)cc2)coc2cc(OC3OC(CO)C(O)C(O)C3O)cc(O)c12` (centres undefined), the half-maximal activity concentration (AC50) under setting [2] is 31.6 µM [rising, single point].

For the compound `COC(=O)C(NC(=O)c1c(C)nn(C)c1Cl)c1ccccc1` (centres undefined), the concentration at half-maximal activity (AC50) was 10 µM [falling, partial curve, poor fit] under setting [1] and 0.0447 µM [falling, full curve, poor fit] under setting [2].

As to `FC(F)(F)c1nc(N2CCCC2)ncc1-c1nnnn1-c1ccc(Cl)cc1`, the half-maximal activity concentration (AC50) is 11.2 µM [rising, partial curve] under setting [1] and 12.6 µM [rising, partial curve] under setting [2].

With `CC(=O)c1ccc(N2C(=O)N(CC(=O)c3ccc(F)cc3)c3ccccc3S2(=O)=O)cc1`, the concentration at half-maximal activity (AC50) under setting [2] was 6.31 µM [falling, single point].

On to `Cc1cccc(OCC(=O)N/N=C/c2cc([N+](=O)[O-])ccc2N2CCOCC2)c1`, for which the half-maximal activity concentration (AC50) runs as follows: under setting [1], 3.16 µM [rising, full curve]; under setting [2], 0.224 µM [rising, full curve, poor fit].

As for `Cc1cc(C)n(CC(=O)N2CCCC(C(=O)c3cccc(OC(C)C)c3)C2)n1` (centres undefined), the AC50 under setting [1] was 14.1 µM [falling, single point] and the concentration at half-maximal activity (AC50) under setting [2] was 35.5 µM [falling, single point].

Turning to `CC(=O)Nc1ccccc1-c1nnn(CC(=O)Nc2ccc3c(c2)OCCO3)n1`, the half-maximal activity concentration (AC50) under setting [1] was 22.4 µM [falling, single point].

On to `N#C/C(=C\c1cn[nH]c1-c1ccc(Cl)cc1)C(=O)NC1CC1`, for which the half-maximal activity concentration (AC50) runs as follows: under setting [1], 11.2 µM [rising, partial curve, poor fit]; under setting [2], 28.2 µM [rising, single point].

For `C=C(C)CNC(=S)N/N=C\c1ccc2c(c1)OCO2`, the AC50 is 0.01 µM [rising, full curve, poor fit] under setting [1] and 0.00708 µM [rising, full curve, poor fit] under setting [2].

As for `O=C(Nc1ncc2c(n1)-c1ccccc1CC2)c1cccc(Cl)c1`, the concentration at half-maximal activity (AC50) is 35.5 µM [falling, single point] under setting [1] and 35.5 µM [falling, single point] under setting [2].

Consider `Cc1cc(C)cc(NS(=O)(=O)c2ccc3c(c2)c(=O)n(C)c(=O)n3C)c1`, for which the half-maximal activity concentration (AC50) under setting [2] was 7.94 µM [rising, partial curve].

With `CCC(Sc1nc2ccccc2c(=O)n1CCc1ccc(OC)c(OC)c1)C(=O)N(CC)CC` (centres undefined), the AC50 under setting [1] was 14.1 µM [falling, single point].

As to `CCCN(C(=O)Cn1cnc2onc(-c3ccc(F)cc3)c2c1=O)c1cccc(Cl)c1`, the AC50 under setting [1] was 10 µM [falling, partial curve, poor fit].

With `CCc1cccc(C)c1NC(=S)NCc1ccc2c(c1)cc(C)n2C`, the half-maximal activity concentration (AC50) under setting [1] was 14.1 µM [rising, single point] and the half-maximal activity concentration (AC50) under setting [2] is 22.4 µM [rising, single point].

Take `Cc1cccc(CNC(=O)CS(=O)(=O)c2cccc3nsnc23)c1`: the AC50 under setting [2] is 7.08 µM [rising, partial curve, poor fit].

For the compound `Nc1nc(-c2ccc(-c3ccccc3)cc2)cs1`, the concentration at half-maximal activity (AC50) under setting [2] is 17.8 µM [rising, partial curve, poor fit].

Consider `COc1ccc(Cl)cc1NC(=O)c1nn(-c2ccc(C)cc2)c(=O)n(C)c1=O`, for which the AC50 under setting [2] was 35.5 µM [falling, single point].

Turning to `O=C(C1CCC1)N1CCc2cc(S(=O)(=O)NCC3COc4ccccc4O3)ccc21` (centres undefined), the half-maximal activity concentration (AC50) under setting [2] was 28.2 µM [rising, single point].

Consider `O=C(COc1ccccc1F)c1ccc(O)cc1O`, for which, under setting [2], the half-maximal activity concentration (AC50) was 0.0398 µM [rising, full curve, poor fit].

For `Cc1cccc(Cn2c(N3CCN(c4ccccc4)CC3)nc3c2c(=O)n(C)c(=O)n3C)c1`, the AC50 under setting [1] is 12.6 µM [rising, partial curve, poor fit] and the concentration at half-maximal activity (AC50) under setting [2] was 17.8 µM [rising, partial curve].

Turning to `Cc1ccc(SC(C)C(=O)Nc2ccc(S(=O)(=O)N3CCOCC3)cc2)cc1` (centres undefined), under setting [2], the AC50 was 2.24 µM [rising, partial curve, poor fit].

For `CC(C)(C)NC(=O)NC(=O)COC(=O)c1c(F)cccc1Cl`, the AC50 under setting [2] was 0.00501 µM [rising, full curve, poor fit].

Turning to `CCOc1ccc2nc(SCC(=O)c3ccccc3)sc2c1`, the AC50 under setting [2] was 35.5 µM [rising, single point].

For `O=C(OCC(=O)N1CCOCC1)c1ccc2c(c1)OCCO2`, the concentration at half-maximal activity (AC50) under setting [2] was 31.6 µM [rising, single point].

Regarding `O=C(Nc1ccc2c(c1)CCCN2C(=O)c1cccs1)c1ccccc1Cl`, under setting [1], the half-maximal activity concentration (AC50) was 0.0251 µM [falling, full curve].
